Reference: the supplement of paper PMC10849652
Some of the results follow.

Protein sequences, listed by entry. Tags and fused reporters are not part of them. Lines headed by an entry give the natural chain unless they say otherwise; changes in a name come on top.
UniProt Q9HA64: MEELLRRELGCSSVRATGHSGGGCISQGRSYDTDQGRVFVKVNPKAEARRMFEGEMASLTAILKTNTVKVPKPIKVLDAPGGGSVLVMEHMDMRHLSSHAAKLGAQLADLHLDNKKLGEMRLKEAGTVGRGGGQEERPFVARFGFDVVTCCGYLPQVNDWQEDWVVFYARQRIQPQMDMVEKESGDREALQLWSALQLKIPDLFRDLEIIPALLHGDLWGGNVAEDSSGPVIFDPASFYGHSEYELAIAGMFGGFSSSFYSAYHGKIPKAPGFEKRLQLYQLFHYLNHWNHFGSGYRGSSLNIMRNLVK
UniProt Q9H9S5: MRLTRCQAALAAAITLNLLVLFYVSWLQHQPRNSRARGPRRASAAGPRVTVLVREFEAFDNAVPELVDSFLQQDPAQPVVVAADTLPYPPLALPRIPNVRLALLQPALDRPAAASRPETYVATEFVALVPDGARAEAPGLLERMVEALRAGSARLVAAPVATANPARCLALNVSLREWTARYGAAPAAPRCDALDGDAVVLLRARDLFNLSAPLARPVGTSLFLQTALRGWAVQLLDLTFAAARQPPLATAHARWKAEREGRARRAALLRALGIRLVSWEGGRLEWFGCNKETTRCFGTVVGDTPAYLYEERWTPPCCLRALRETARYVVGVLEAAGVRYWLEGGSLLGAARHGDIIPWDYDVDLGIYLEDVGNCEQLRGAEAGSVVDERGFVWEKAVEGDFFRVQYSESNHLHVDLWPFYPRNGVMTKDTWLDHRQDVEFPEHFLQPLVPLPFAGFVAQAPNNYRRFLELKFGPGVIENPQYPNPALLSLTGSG
UniProt Q6UN15: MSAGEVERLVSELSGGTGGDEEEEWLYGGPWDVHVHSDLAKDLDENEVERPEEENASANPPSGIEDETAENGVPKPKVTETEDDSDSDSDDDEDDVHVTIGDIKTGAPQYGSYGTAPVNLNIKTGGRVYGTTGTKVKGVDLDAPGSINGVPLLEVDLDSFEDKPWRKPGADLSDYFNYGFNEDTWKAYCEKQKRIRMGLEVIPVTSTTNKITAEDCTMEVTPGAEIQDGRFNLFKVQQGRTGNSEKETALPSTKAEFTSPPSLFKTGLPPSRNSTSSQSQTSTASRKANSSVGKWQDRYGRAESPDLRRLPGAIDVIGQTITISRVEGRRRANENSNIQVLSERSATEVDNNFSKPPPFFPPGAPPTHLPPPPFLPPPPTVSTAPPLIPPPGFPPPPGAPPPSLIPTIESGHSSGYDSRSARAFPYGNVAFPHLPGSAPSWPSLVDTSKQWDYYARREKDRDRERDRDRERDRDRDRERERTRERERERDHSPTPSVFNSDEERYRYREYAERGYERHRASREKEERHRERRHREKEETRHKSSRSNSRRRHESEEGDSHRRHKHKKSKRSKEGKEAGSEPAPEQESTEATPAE
UniProt Q9NXK8: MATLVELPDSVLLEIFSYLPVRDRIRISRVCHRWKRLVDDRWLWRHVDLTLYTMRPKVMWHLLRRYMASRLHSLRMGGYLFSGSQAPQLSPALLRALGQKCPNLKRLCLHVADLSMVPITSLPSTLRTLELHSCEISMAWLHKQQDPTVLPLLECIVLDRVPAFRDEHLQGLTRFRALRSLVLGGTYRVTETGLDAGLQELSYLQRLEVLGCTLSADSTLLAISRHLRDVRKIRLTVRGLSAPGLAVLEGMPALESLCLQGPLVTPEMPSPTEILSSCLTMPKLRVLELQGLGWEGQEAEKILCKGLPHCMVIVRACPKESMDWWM
UniProt Q9UIM3: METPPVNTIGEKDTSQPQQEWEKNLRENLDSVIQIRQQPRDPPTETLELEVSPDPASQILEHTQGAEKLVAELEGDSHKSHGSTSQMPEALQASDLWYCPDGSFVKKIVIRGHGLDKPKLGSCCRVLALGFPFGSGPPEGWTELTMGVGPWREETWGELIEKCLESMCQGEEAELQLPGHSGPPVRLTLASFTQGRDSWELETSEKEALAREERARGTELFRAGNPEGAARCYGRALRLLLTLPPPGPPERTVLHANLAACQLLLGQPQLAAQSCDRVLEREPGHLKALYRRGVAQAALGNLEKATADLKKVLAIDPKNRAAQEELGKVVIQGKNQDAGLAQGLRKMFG
UniProt P10109: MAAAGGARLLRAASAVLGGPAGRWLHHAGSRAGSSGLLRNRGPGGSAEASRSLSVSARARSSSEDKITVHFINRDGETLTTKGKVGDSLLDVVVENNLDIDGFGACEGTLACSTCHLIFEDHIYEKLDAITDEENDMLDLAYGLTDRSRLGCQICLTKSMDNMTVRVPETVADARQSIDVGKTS
UniProt Q8TB52: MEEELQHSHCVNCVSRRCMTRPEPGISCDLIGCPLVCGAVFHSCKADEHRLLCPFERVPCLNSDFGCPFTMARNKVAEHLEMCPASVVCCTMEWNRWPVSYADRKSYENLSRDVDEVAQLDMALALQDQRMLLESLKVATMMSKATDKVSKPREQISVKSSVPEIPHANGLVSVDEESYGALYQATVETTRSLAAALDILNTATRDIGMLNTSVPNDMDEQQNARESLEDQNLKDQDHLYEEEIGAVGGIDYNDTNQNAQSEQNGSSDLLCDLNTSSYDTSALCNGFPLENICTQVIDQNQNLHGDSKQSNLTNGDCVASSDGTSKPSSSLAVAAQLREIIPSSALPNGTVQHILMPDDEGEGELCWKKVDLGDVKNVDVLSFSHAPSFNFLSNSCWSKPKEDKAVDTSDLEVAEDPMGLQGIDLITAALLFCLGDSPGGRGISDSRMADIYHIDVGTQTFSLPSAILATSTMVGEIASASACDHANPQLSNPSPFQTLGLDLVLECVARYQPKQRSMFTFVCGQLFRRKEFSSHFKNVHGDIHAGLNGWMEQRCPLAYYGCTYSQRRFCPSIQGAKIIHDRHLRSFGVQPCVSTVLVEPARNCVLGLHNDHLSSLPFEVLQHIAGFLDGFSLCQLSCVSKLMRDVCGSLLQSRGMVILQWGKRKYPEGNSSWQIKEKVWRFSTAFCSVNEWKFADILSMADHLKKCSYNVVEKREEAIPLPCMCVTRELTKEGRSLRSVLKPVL
UniProt Q13643: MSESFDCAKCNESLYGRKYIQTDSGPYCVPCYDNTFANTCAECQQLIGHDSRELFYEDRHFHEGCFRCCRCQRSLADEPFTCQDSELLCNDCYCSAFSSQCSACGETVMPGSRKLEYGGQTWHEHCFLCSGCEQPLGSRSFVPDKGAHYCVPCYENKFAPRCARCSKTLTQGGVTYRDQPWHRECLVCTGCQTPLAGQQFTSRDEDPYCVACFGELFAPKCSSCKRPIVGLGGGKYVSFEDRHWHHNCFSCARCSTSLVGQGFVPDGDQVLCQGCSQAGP
UniProt Q92913: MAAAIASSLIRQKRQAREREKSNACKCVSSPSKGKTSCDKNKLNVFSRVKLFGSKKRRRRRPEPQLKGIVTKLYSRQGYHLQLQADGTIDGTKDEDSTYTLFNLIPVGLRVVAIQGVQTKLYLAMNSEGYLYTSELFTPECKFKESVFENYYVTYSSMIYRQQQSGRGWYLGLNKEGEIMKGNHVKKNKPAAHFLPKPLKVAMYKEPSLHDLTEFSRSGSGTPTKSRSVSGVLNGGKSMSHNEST
UniProt Q8WVX9: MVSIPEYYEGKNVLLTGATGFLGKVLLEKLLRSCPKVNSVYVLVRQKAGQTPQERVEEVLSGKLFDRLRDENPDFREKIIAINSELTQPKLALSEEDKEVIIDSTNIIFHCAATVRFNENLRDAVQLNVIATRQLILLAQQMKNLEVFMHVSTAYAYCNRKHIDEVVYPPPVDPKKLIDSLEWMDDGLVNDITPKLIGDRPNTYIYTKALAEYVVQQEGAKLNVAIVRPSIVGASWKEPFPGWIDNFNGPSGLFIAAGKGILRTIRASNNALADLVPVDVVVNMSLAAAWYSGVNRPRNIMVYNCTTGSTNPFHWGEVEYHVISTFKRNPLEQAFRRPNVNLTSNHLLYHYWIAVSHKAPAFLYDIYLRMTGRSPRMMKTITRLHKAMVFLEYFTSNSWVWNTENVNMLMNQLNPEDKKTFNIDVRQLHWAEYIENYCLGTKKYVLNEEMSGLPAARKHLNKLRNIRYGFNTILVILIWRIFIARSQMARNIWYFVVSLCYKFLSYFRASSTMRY
UniProt P02751, whole entry, looked up: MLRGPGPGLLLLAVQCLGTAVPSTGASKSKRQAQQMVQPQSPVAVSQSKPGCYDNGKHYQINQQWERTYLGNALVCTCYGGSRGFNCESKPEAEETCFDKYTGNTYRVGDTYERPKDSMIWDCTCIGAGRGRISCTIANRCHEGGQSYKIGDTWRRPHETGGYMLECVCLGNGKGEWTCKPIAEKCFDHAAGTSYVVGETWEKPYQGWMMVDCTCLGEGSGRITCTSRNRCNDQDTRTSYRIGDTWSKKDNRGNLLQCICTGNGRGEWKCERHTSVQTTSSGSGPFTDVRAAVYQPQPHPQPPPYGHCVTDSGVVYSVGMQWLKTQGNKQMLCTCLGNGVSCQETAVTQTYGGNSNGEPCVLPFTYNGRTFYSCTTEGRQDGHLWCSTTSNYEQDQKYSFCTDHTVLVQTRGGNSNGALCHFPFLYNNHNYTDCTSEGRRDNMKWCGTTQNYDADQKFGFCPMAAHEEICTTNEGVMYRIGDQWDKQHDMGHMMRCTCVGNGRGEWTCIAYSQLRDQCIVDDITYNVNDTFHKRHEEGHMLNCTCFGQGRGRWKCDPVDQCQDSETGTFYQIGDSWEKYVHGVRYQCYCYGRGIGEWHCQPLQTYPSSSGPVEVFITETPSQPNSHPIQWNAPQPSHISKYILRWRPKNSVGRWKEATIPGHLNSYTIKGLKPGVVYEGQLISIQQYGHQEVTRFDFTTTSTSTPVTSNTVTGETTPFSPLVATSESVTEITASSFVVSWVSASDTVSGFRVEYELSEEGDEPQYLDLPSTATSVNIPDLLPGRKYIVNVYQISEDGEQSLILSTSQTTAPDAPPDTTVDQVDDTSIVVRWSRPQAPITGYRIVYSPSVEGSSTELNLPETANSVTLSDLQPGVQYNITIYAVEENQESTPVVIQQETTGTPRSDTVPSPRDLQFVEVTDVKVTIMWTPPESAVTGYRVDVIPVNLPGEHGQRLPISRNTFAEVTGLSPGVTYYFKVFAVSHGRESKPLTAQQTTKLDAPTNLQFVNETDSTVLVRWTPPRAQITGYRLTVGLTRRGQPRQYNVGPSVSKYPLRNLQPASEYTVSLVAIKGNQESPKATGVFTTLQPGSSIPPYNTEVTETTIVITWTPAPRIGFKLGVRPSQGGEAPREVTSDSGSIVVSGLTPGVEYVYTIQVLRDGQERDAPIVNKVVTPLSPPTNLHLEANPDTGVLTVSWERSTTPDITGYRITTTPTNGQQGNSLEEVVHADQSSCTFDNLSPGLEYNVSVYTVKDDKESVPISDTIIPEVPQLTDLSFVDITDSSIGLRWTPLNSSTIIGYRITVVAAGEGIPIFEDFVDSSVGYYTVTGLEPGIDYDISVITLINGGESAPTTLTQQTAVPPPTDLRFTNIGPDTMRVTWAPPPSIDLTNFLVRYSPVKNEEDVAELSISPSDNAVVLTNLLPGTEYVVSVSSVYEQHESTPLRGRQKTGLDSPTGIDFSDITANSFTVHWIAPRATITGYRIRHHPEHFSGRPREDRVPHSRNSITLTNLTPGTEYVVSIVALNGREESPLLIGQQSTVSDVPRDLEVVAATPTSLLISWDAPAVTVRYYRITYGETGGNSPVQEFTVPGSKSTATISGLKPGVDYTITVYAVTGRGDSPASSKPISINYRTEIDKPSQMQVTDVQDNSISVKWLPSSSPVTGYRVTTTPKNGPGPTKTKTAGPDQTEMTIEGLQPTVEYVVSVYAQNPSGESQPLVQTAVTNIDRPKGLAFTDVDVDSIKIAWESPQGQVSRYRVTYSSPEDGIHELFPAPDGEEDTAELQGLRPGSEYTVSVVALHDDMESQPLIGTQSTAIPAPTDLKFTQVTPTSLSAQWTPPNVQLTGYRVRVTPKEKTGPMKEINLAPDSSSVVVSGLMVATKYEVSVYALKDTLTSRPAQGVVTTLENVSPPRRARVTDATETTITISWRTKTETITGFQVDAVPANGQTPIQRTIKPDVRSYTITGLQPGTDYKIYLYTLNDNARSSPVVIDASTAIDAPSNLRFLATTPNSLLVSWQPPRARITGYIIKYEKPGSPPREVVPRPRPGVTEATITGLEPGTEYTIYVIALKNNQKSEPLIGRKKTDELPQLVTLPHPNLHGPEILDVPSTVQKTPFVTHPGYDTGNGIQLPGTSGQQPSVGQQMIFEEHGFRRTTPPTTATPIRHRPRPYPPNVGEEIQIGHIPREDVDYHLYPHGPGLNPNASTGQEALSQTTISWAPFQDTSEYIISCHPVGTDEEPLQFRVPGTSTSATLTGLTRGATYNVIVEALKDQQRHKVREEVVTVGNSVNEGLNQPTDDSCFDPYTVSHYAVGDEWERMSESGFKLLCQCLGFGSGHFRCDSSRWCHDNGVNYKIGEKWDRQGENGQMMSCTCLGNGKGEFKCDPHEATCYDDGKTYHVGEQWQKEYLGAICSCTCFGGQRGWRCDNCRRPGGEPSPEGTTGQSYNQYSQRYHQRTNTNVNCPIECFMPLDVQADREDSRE

Compound: CN(CCOC1=CC=C(C=C1)C[C@H]2C(=O)NC(=O)S2)C3=CC=CC=N3 (racemic) [rosiglitazone]
Assay: log2 fold change, soluble protein after heating vs DMSO (PISA); higher = thermal stabilisation; K562 cells, 10 uM, 30 min; active = over 0.2 and 3.5 SD of the protein, either way, in both replicates (recomputed)
Method in brief: (§1)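 K562 cells at 2×10^6 cells/mL were treated with 10 μM compound for 30 min. Aliquots were heated for 3 min across 48°C-58°C, pooled, and extracted in PBS with 0.5% NP-40 at 4°C; soluble protein was the supernatant after 21,000xg for 90 min. Soluble protein was quantified by TMTpro 16plex LC-MS/MS with channel sums equalised, and reported as log2 fold change in thermal stability against DMSO controls, with values from duplicates.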

Target	log2 fold change
FN3KRP (UniProt Q9HA64)	inactive: -0.003
FCGR2A (UniProt P12318)	inactive: -0.021
FKRP (UniProt Q9H9S5)	inactive: 0.082
FIP1L1 (UniProt Q6UN15)	inactive: -0.016
FAM234A (UniProt Q9H0X4)	inactive: 0.002
FAM98A (UniProt Q8NCA5)	inactive: -0.164
FLT4 (UniProt P35916)	inactive: 0.044
FBXL12 (UniProt Q9NXK8)	inactive: -0.025
FKBPL (UniProt Q9UIM3)	inactive: 0.006
FDX1 (UniProt P10109)	inactive: -0.007
FAM219A (UniProt Q8IW50)	inactive: 0.028
FBXO30 (UniProt Q8TB52)	inactive: 0.023
FAM76B (UniProt Q5HYJ3)	inactive: 0.012
FANCB (UniProt Q8NB91)	inactive: -0.002
FHL3 (UniProt Q13643)	inactive: -0.023
FKBP9 (UniProt O95302)	inactive: 0.022
FAM49B (UniProt Q9NUQ9)	inactive: 0.031
FASTKD2 (UniProt Q9NYY8)	inactive: 0.06
FGF13 isoform 3 (UniProt Q92913)	inactive: 0.007
FNBP4 isoform 2 (UniProt Q8N3X1)	inactive: -0.019
FAR1 (UniProt Q8WVX9)	inactive: -0.011
FBH1 isoform 2 (UniProt Q8NFZ0)	inactive: -0.068
FN1 isoform 1 (UniProt P02751)	inactive: 0.055
FKBP5 (UniProt Q13451)	inactive: 0.082
FAT3 isoform 1 (UniProt Q8TDW7)	inactive: 0.007
FAM210A (UniProt Q96ND0)	inactive: 0.013
FBXW9 (UniProt Q5XUX1)	inactive: 0.022

Compound: CN1C2=C(C3=C1C(=O)N(N=C3)CC4=CC(=CC=C4)N)SC(=C2)S(=O)C
Assay: as above
Method in brief: as §1

Target	log2 fold change
FN3KRP (UniProt Q9HA64)	inactive: -0.057
FCGR2A (UniProt P12318)	inactive: -0.176
FKRP (UniProt Q9H9S5)	inactive: 0.008
FDXR isoform 7 (UniProt P22570)	inactive: -0.097
FIP1L1 (UniProt Q6UN15)	inactive: 0.094
FAM234A (UniProt Q9H0X4)	inactive: -0.123
FLNA (UniProt P21333)	inactive: 0.052
FAM98A (UniProt Q8NCA5)	inactive: 0.279
FLT4 (UniProt P35916)	inactive: -0.093
FBXL12 (UniProt Q9NXK8)	inactive: -0.091
FKBPL (UniProt Q9UIM3)	inactive: -0.049
FDX1 (UniProt P10109)	inactive: -0.047
FAM219A (UniProt Q8IW50)	inactive: -0.106
FAM91A1 (UniProt Q658Y4)	inactive: 0.001
FBXO30 (UniProt Q8TB52)	inactive: 0.02
FBXO7 (UniProt Q9Y3I1)	inactive: -0.022
FAM76B (UniProt Q5HYJ3)	inactive: 0.026
FAM3A (UniProt P98173)	inactive: -0.023
FANCB (UniProt Q8NB91)	inactive: -0.04

Target	log2 fold change
FECH isoform 2 (UniProt P22830)	inactive: -0.123
FHL3 (UniProt Q13643)	inactive: -0.057
FKBP9 (UniProt O95302)	inactive: 0.086
FAM49B (UniProt Q9NUQ9)	inactive: -0.088
FASTKD2 (UniProt Q9NYY8)	inactive: -0.047
FGF13 isoform 3 (UniProt Q92913)	inactive: 0.012
FERMT3 (UniProt Q86UX7)	inactive: -0.021
FBXO6 (UniProt Q9NRD1)	inactive: 0.005
FBL (UniProt P22087)	inactive: 0.359
FNBP4 isoform 2 (UniProt Q8N3X1)	inactive: -0.002
FAR1 (UniProt Q8WVX9)	inactive: -0.064
FARS2 (UniProt O95363)	inactive: -0.002
FN1 isoform 1 (UniProt P02751)	inactive: 0.18
FKBP4 (UniProt Q02790)	inactive: -0.04
FKBP5 (UniProt Q13451)	inactive: 0.066
FAT3 isoform 1 (UniProt Q8TDW7)	inactive: 0.077
FAM210A (UniProt Q96ND0)	inactive: -0.093
FIS1 (UniProt Q9Y3D6)	inactive: -0.189
FBXW9 (UniProt Q5XUX1)	inactive: 0.014

Compound: CN1CCC(CNc2ccc3ncc(-c4cccc(OC(F)(F)F)c4)n3n2)CC1
Assay: as above
Method in brief: as §1

Target	log2 fold change
FN3KRP (UniProt Q9HA64)	inactive: 0.006
FCGR2A (UniProt P12318)	inactive: 0.003
FKRP (UniProt Q9H9S5)	inactive: -0.067
FDXR isoform 7 (UniProt P22570)	active: -0.387
FIP1L1 (UniProt Q6UN15)	inactive: 0.004
FLNA (UniProt P21333)	inactive: -0.12
FAM98A (UniProt Q8NCA5)	inactive: 0.121
FLT4 (UniProt P35916)	inactive: -0.038
FBXL12 (UniProt Q9NXK8)	inactive: 0.192
FKBPL (UniProt Q9UIM3)	inactive: 0
FDX1 (UniProt P10109)	inactive: 0.117
FAM91A1 (UniProt Q658Y4)	active: 0.233
FBXO30 (UniProt Q8TB52)	inactive: -0.064
FBXO7 (UniProt Q9Y3I1)	inactive: 0.003
FAM76B (UniProt Q5HYJ3)	inactive: 0.244
FAM3A (UniProt P98173)	inactive: -0.128
FANCB (UniProt Q8NB91)	inactive: 0.089
FECH isoform 2 (UniProt P22830)	inactive: 0.163

Target	log2 fold change
FHL3 (UniProt Q13643)	inactive: -0.019
FKBP9 (UniProt O95302)	inactive: 0.066
FAM49B (UniProt Q9NUQ9)	inactive: -0.071
FASTKD2 (UniProt Q9NYY8)	inactive: -0.047
FGF13 isoform 3 (UniProt Q92913)	inactive: 0.071
FERMT3 (UniProt Q86UX7)	inactive: -0.149
FBXO6 (UniProt Q9NRD1)	active: 0.366
FBL (UniProt P22087)	inactive: 0.34
FNBP4 isoform 2 (UniProt Q8N3X1)	inactive: 0.034
FAR1 (UniProt Q8WVX9)	inactive: 0.1
FBH1 isoform 2 (UniProt Q8NFZ0)	inactive: -0.01
FARS2 (UniProt O95363)	active: -0.319
FN1 isoform 1 (UniProt P02751)	inactive: -0.1
FKBP4 (UniProt Q02790)	inactive: -0.119
FKBP5 (UniProt Q13451)	inactive: -0.165
FAM210A (UniProt Q96ND0)	inactive: -0.044
FIS1 (UniProt Q9Y3D6)	inactive: -0.075
